Measurements: patent publication US20260382770A1, “MACROCYCLIC COMPOUND AND USE THEREOF” (published 2026)
For part of its entries the source gives two or more results. This is not the full list of results. The source may hold further records. The records of an entry differ, and nothing given here explains why; dose, time, organism, isomer or construct need not be as stated for each record.

System: canine plasma proteins
Experiment: In vitro canine plasma protein binding rate of compounds
Settings: 1 mM, ultracentrifugation, 37 °C, individual replicates
Protocol: 1. Test samples: EIucirem™ (Gadopiclenol, commercially purchased, lot P233A), compound 4
Elucirem™ and compound 4 were respectively diluted with blank canine plasma to prepare plasma samples at a concentration of 1 mM. The binding rates of Gadopiclenol and compound 4 to canine plasma proteins were determined by ultracentrifugation. After the preparation of plasma samples, 0.5 mL of plasma samples were transferred into ultracentrifugation tubes, with 3 replicates per concentration. After incubation in a CO2 incubator at 37 °C for 0.5 h, the samples were subjected to ultracentrifugation at 627,000 g for 3 hours at 37 °C. After centrifugation, 100 μL of samples were taken from the central layer of the ultracentrifugation tubes and mixed with 100 μL of blank plasma. The samples were stored at −70 °C for subsequent determination. The concentrations of Gadopiclenol and compound 4 in the samples were quantitatively analyzed by LC-MS/MS.
The plasma protein binding rates of analytes at different concentration levels were calculated using the following formulas:
Free rate %=(Concentration of the central layer in ultracentrifugation tubes(Cu)/Concentration of non-ultracentrifuged samples after 0.5 h incubation(C0-5h))*100%, • Binding rate %=100%—Free rate %.

- Binding rate %: −1.27%, −2.05%, −0.41%
Substance: Gadopiclenol
